These results are taken from PMC4792136, “A generic screening platform for inhibitors of virus induced cell fusion using cellular electrical impedance” (Scientific Reports, 2016).

Chains of the proteins cited; added tags and fusions are not shown. Residues count along the entry.
UniProt P03420, 137-574: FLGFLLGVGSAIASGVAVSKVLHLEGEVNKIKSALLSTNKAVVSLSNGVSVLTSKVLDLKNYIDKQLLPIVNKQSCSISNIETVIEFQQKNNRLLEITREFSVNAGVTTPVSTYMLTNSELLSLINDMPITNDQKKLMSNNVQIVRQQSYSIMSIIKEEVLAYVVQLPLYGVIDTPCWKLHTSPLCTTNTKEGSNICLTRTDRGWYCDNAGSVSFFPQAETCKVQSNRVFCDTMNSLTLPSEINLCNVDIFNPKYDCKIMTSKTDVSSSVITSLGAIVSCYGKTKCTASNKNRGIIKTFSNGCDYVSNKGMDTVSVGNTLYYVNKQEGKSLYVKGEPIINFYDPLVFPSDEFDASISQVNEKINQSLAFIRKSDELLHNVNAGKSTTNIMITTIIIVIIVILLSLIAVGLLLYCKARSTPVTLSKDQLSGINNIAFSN
UniProt P03420, 26-109: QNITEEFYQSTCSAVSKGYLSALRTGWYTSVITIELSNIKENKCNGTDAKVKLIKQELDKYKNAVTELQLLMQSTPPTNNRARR

In general, IC50 refers to the midpoint of a concentration-inhibition curve.

Holding throughout (type): cell-based
Assay [1] deals with T1, RSV F protein (Human respiratory syncytial virus A, UniProt P03420).
T1 construct: expressed in transfected cells; host or cells: Cos7 cells (transiently transfected), co-plated with BsrT7 cells
Put plainly: Cell content mixing T7 luciferase fusion assay, recombinant F, 384-well. On the procedure:
(§1) The protocol is an adaptation of that described by Bagai and Lamb[29]. Cos7 cells were transfected with a plasmid containing Renilla luciferase under T7 promoter control (pGL80-T7RL) and an RSV F expression vector. For live virus fusion assay, transfection media was removed after 2 h and replaced with SF media containing RSV (MOI of 2). Two h post infection (4 h post initial transfection) cells were trypsinized and re-suspended to 8 × 10^5 cells/ml. Compounds were serially diluted in SF Opti-MEM media and added to opaque bottom, white microtitre plates (Corning) at 50 μl/well along with 25 μl of both Cos7 and BsrT7 cells added to each well to obtain a final concentration of 5 × 10^4 cells/well. After 24 h, media was exchanged with 50 μl/well Opti-MEM media supplemented with 2% FBS and 8 ng/ml Enduren Live Cell Substrate (Promega). After 6 h at 37 °C in a humidified incubator supplemented with 5% CO2, the plates were read using a Lucy 2 luminometer with 1 sec integration time. Assays were performed in triplicate.
(§2) 384-well fusion assays were setup as per 96-well protocol with the following changes: Cos7 and BsrT7 cells were seeded at a final concentration of 1 × 10^4 cells/well. Compound titration was performed in a Biomek NX Laboratory Automation Workstation and added to a final volume of 25 μl/well. Luciferase activity was determined using an EnVision Multilabel reader (PerkinElmer).

The target of assay [2] is T1, RSV F protein. Put plainly: recombinant F CEI fusion assay, 384-well.
Text: Impedance assays were setup in parallel to microscopy based fluorescent protein cytoplasmic mixing and cell content mixing T7 driven fusion assays. For testing small molecule inhibitors see cell content mixing, T7 driven reporter fusion assay protocol for cell infection, transfection and plating method. All other steps were as listed below.
Cos7-G cells were transfected with the RSV F expression vector (pCICO-Fopt) in 6 well plates using lipofectamine LTX as per manufacturer’s instructions (Invitrogen) or infected with RSV (MOI of 2). Four hours post infection/transfection, cells were trypsinized and re-suspended to 8 × 10^5 cells/ml. E-Plates were pre-blanked and Cos7-G and Cos7-R cells were seeded together at a 1:1 ratio for a final cell density of 5 × 10^4 cells/well. Plates were placed into the SP station, incubated at 37 °C in 5% CO2 and impedance was recorded every 15 min over 72 h.
as §2

The target in assay [3] is T1, RSV F protein. Put plainly: Cell content mixing T7 luciferase fusion assay, recombinant F, 96-well. Here is the method:
as §1

Structures are written as SMILES.

Consider `Cc1ccc(CCCO)c(NCc2ccc3nc(NCCCN4CCOCC4)n(Cc4nc(C)ccc4O)c3c2)c1` [TMC-353121], for which the values for the IC50 at RSV F protein [1], on RSV F protein [2] and on RSV F protein [3] were 63.1 nM, 126 nM and 0.501 nM, respectively.
